Measured values: PubChem BioAssay AID493014 (National Center for Advancing Translational Sciences (NCATS), 2011)
Some of the results follow. Further columns of the screen follow, without active or inactive calls. Compounds called inactive in the main read-out are mostly missing here. Potencies come from curve fits of mixed quality, noted in brackets. Peptide text beside a SMILES is read from it. * marks the point of attachment. Cbz = O=C(OCc1ccccc1)*

Assay: qHTS Assay to Find Inhibitors of Chronic Active B-Cell Receptor Signaling
Settings: ABC-DLBCL IkBa-CBG/CBR reporter, luminescence ratio (green luciferase fused to IkBa over red control in TMD8 lymphoma cells), 4 h
In short: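 Concentration-response series (up to 46 uM) were applied to TMD8 dual-reporter cells for 4 h at 37C with doxycycline. Green/red ratio, after filter-overlap correction, defined %Activity; red signal alone was normalised to basal cells and zero luminescence.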

[1] = measured here: CBR red luminescence, cell number
[2] = measured here: IkBa-CBG green luminescence

| SMILES | AC50 [1] | AC50 [2] |
| --- | --- | --- |
| CC(C)n1nc(C(=O)Nc2ccc(-n3cnnn3)cc2)c2ccccc2c1=O | 16.4 µM [rising, single point] |  |
| O=C(CS(=O)(=O)c1ccccc1)Nc1ncc([N+](=O)[O-])s1 | 11.2 µM [falling, partial curve] |  |
| O=C(COC(=O)c1ccc(O)cc1)NCCc1c[nH]c2ccccc12 |  | 20.6 µM [falling, partial curve, poor fit] |
| COC(=O)C(C)NC(=O)C1CCCN1C(=O)CNC(=O)OCc1ccccc1 (stereo not drawn) (Cbz-Gly-Pro-Ala-OMe; configuration not given here) | 11.2 µM [rising, partial curve] |  |
| Oc1ccc2ccccc2c1N=Nc1nccs1 | 3.16 µM [rising, full curve] |  |
| CCOC(=O)c1cnn(-c2ccccc2)c1-n1cccc1C(=O)C(=O)Nc1ccccc1 | 35.5 µM [falling, single point] |  |
| COc1cccc(C=Nc2ccccc2C#N)c1O | 23.1 µM [rising, partial curve, poor fit] |  |
| CCc1cccc(C)c1NC(=O)COC(=O)c1cc([N+](=O)[O-])ccc1N1CCOCC1 | 14.6 µM [rising, partial curve, poor fit] |  |
| COc1ccc(NC(=O)Cn2nnc(C(=O)NCCc3ccc(OC)c(OC)c3)c2N)c(OC)c1 | 5.01 µM [rising, full curve, poor fit] |  |
| CCn1nc(NS(=O)(=O)c2ccccc2)c2cc3ccc(C)cc3nc21 | 11.2 µM [rising, single point] |  |
| N#CC(c1ccccc1)N(CCCCl)C(=O)c1ccc(Br)cc1 (configuration not stated) | 18.4 µM [falling, single point] |  |
| COc1ccc(-c2noc(CSc3nc4ccccc4c(=O)n3-c3ccccc3)n2)cc1 | 29.1 µM [falling, single point] |  |
| Cc1cccc(-c2cnn(-c3ccccc3)c2N)c1 | 12.6 µM [falling, single point] |  |
| Cn1c(=O)oc2cc(S(=O)(=O)N3CCC(C(=O)N4CCc5ccccc5C4)CC3)ccc21 | 29.1 µM [rising, single point] |  |
| O=C(CSc1cccc[n+]1[O-])CSc1cccc[n+]1[O-] | 0.631 µM [falling, partial curve, poor fit] | 0.631 µM [falling, partial curve, poor fit] |
| Cc1cccc(Cn2ncc(Cl)c(Cl)c2=O)c1 | 8.91 µM [falling, partial curve] |  |
| CCCC(=O)N1CCN(c2nc3ccccc3s2)CC1 | 3.55 µM [rising, partial curve, poor fit] |  |
| Cc1cc(C)c(-c2csc(NC(=O)/C=C/c3cccs3)n2)c(C)c1 | 7.31 µM [falling, partial curve] | 18.4 µM [rising, partial curve] |
| O=C(Nc1ccc(NC(=O)c2ccc3c(c2)OCCO3)cc1)c1ccccc1 | 22.4 µM [falling, single point] |  |
| CC(C)c1nc2cc(C(=O)N(C)C3CCOCC3)ccc2o1 | 8.91 µM [rising, partial curve] |  |
| Cc1ccc(N2C(=O)C3N=NN(CC(=O)N4N=C(c5cccc6ccccc56)CC4c4ccccc4)C3C2=O)cc1 (configuration not stated) | 20.6 µM [rising, single point] |  |

| SMILES | AC50 [1] | AC50 [2] |
| --- | --- | --- |
| Cc1ccc(S(=O)(=O)c2cc3c(=O)n4ccccc4nc3n(C)c2=N)cc1 | 7.31 µM [falling, single point] |  |
| Cc1ccc(S(=O)(=O)N(C)CCCC(=O)Nc2cccc3ccccc23)cc1 |  | 14.6 µM [falling, partial curve, poor fit] |
| CCc1ccc(-c2nc(CSCC(=O)N3CCN(c4ccccn4)CC3)c(C)o2)cc1 | 35.5 µM [falling, single point] |  |
| CCS(=O)(=O)N1CCC2(CC1)OCCN2S(=O)(=O)c1ccc(OC)cc1 | 0.291 µM [falling, full curve] |  |
| COC(=O)c1nn(-c2ccccc2)c(-c2ccccc2)c1C(=O)c1ccccc1 | 5.01 µM [falling, partial curve, poor fit] |  |
| COC(=O)C(CC(C)C)NC(=O)/C=C/c1ccccc1Cl (configuration not stated) | 1.64 µM [rising, partial curve, poor fit] |  |
| CCc1ccc(-n2c(O)c(C=NCCN(CC)CC)c(=O)[nH]c2=O)cc1 | 0.398 µM [rising, full curve, poor fit] |  |
| O=C(Nc1cc(C(F)(F)F)ccc1N1CCOCC1)c1cn2ccccc2n1 | 1.3 µM [falling, full curve] |  |
| CCC(=O)c1ccc(OCCSc2ncccn2)cc1 | 4.11 µM [rising, single point] |  |
| CCOc1ccc2c(c1)C(C)=CC(C)(C)N2S(=O)(=O)c1ccc(F)cc1 | 25.1 µM [rising, single point] | 35.5 µM [falling, single point] |
| O=C(Cc1ccc(-n2c(=O)[nH]c3ccccc3c2=O)cc1)N1CCN(c2cccc(Cl)c2)CC1 | 22.4 µM [falling, single point] |  |
| CCOc1ccc(NC(=O)CN2C(=O)S/C(=C/c3cccn3C)C2=O)cc1 | 35.5 µM [falling, single point] |  |
| C=CCn1c(N2CCN(c3ccc(OC)cc3)CC2)nc2c1c(=O)n(C)c(=O)n2C | 1.12 µM [falling, partial curve, poor fit] |  |
| COc1cc(OC)c2c(c1O)OC(c1ccccc1)CC2=O (configuration not stated) | 35.5 µM [rising, single point] |  |
| Cc1ccccc1OCCOC(=O)c1c(-c2ccccc2)noc1C | 17.8 µM [rising, partial curve] | 25.1 µM [falling, single point] |
| CC(=O)Nc1ccc2nc(C3CCCCC3)[nH]c2c1 | 14.1 µM [falling, partial curve, poor fit] |  |
| O=C(Nc1nccs1)c1cccc2ccccc12 | 25.1 µM [falling, single point] |  |
| O=C(Nc1cccc(Cl)c1N1CCCC1)c1cc2ccccc2o1 | 8.2 µM [rising, partial curve, poor fit] |  |
| Cc1nn(-c2ccc([N+](=O)[O-])cc2)c2c1C(c1cccc(Br)c1)N1C(=N2)C(=O)Nc2ccccc21 (configuration not stated) | 10.3 µM [rising, partial curve] |  |
| N/C(Cc1ccc(Cl)cc1Cl)=N\OC(=O)Cc1ccccc1 | 25.9 µM [rising, single point] |  |
| Cc1ccc(-c2noc(CSc3nc(N)cc(N)n3)n2)cc1 | 18.4 µM [rising, partial curve, poor fit] |  |

An excerpt from above in order of SMILES length, ascending:

| SMILES | AC50 [1] | AC50 [2] |
| --- | --- | --- |
| COC(=O)C(CC(C)C)NC(=O)/C=C/c1ccccc1Cl (configuration not stated) | 1.64 µM [rising, partial curve, poor fit] |  |
| O=C(Nc1cc(C(F)(F)F)ccc1N1CCOCC1)c1cn2ccccc2n1 | 1.3 µM [falling, full curve] |  |
| Cc1ccc(N2C(=O)C3N=NN(CC(=O)N4N=C(c5cccc6ccccc56)CC4c4ccccc4)C3C2=O)cc1 (configuration not stated) | 20.6 µM [rising, single point] |  |
| Cc1nn(-c2ccc([N+](=O)[O-])cc2)c2c1C(c1cccc(Br)c1)N1C(=N2)C(=O)Nc2ccccc21 (configuration not stated) | 10.3 µM [rising, partial curve] |  |

Continued.

| SMILES | AC50 [1] | AC50 [2] |
| --- | --- | --- |
| CC(=O)Nc1nonc1NC(=O)CSc1nc2ccccc2o1 |  | 14.1 µM [falling, single point] |
| C#CCn1cc(/C=N/Nc2nc3ccccc3[nH]2)c2ccccc21 | 16.4 µM [falling, single point] |  |
| COC(=O)c1ccc(Cl)c(NC(=O)CN(c2ccccc2)S(=O)(=O)c2ccc(OC)cc2)c1 | 0.92 µM [falling, full curve] | 18.4 µM [rising, partial curve] |
| Cc1ccc(C(=O)Nc2scc(-c3ccccc3)c2C(=O)O)o1 | 35.5 µM [falling, single point] |  |
| COc1ccc(CCN(C)CC(O)COC(c2ccc(F)cc2)c2ccc(F)cc2)cc1OC (configuration not stated) | 35.5 µM [falling, single point] |  |
| NS(=O)(=O)c1ccc(CNC(=O)C2CCCCC2)cc1 | 6.51 µM [falling, single point] |  |
| O=C1CC(NNc2nc3ccccc3s2)C(=O)N1c1ccccc1 (configuration not stated) | 7.94 µM [falling, partial curve, poor fit] |  |
| O=C(COc1ccccc1-c1ccccc1)N/N=C/c1cccnc1 | 7.94 µM [falling, partial curve] |  |
| COc1ccc(C(=O)NNC(=O)Nc2ccc(Cl)cc2)cc1 | 12.6 µM [falling, partial curve] |  |
| c1ccc(OCCSc2nc3ccccc3o2)cc1 | 3.16 µM [rising, full curve] |  |
| CC(/C=N/N1CCN(Cc2ccccc2)CC1)=C\c1ccccc1 | 35.5 µM [rising, partial curve, poor fit] |  |
| COc1ccc(NS(=O)(=O)c2cccs2)cc1S(=O)(=O)N1CCCCC1 | 3.26 µM [falling, full curve, poor fit] |  |
| O=C(Nc1ccc(N2CCCC2)cc1)c1cc(Cl)ccc1Cl |  | 12.6 µM [falling, partial curve, poor fit] |
| COc1ccc(NC(=O)c2ccccc2[N+](=O)[O-])cc1OC | 16.4 µM [falling, single point] |  |
| CC(/C=N/NC(=O)c1cccs1)=C\c1ccccc1 | 10 µM [falling, partial curve, poor fit] |  |
| Cc1ccc(N2NC(=O)/C(=C\c3cc4c(cc3[N+](=O)[O-])OCO4)C2=O)cc1C | 20.6 µM [falling, single point] |  |
| CCOC(=O)c1sc(NC(C)=O)nc1-c1ccccc1 | 0.316 µM [falling, full curve, poor fit] |  |
| CN1C/C(=C/c2ccsc2)C(=O)/C(=C/c2ccsc2)C1 | 6.51 µM [falling, single point] |  |
| Cc1nc(-c2ccc(NC(=O)c3ccccc3Br)cc2)cs1 | 9.2 µM [falling, partial curve, poor fit] |  |
| CCOc1ccc(N=Nc2c(N)[nH][nH]c2=O)cc1 | 10.3 µM [rising, partial curve, poor fit] |  |
